Measurements reported in PubChem BioAssay AID1508597 (Cure First, 2020).
The deposit covers about 2,100 reagents; below is an unselected part. 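Calls flag viability under 80% in either arm, not effects specific to rucaparib; the reference for percent is not stated.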 A reagent listed more than once was tested more than once; the source does not tell the runs apart. Not given: the 100% reference.

Test: 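Survival screen with siRNA in ovarian cancer cells derived from patients, with or without rucaparib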 (primary screen)
Cells: human ovarian carcinoma lines grown from tumours: OCI-P5x (papillary serous) and OCI-C5x (clear cell)
Reagent: siRNA pool against human genes, 1.25 pmol siRNA per well
Timing: 72 h or 96 h, depending on the cell culture
Challenge: rucaparib 20 µM (about IC30) or vehicle, present until read-out
Detection: 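Luminescent ATP-based viability assay read 72 or 96 h after transfection, depending on culture, given as normalised percent viability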
Reading the numbers: viability, normalised: higher = more viable cells remaining
Rule for the call: 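a well counts as a hit if its normalised viability is under 80 percent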
Calls: active = viability under 80%; inactive = viability 80% or more

Target gene	PubChem SID	rucaparib or vehicle	cell line	technical replicate	viability, normalised (%)	call
RPA3	SID405528324	Rucaparib	OCI-C5x (clear cell)	1	41.9	active
RPA3	SID405528324	Rucaparib	OCI-C5x (clear cell)	2	52.8	active
RPA3	SID405528324	Rucaparib	OCI-C5x (clear cell)	3	53.8	active
RPA3	SID405528324	Rucaparib	OCI-P5x (serous)	1	76.3	active
RPA3	SID405528324	Rucaparib	OCI-P5x (serous)	2	79.2	active
RPA3	SID405528324	Rucaparib	OCI-P5x (serous)	3	71	active
RPA3	SID405528324	Vehicle	OCI-C5x (clear cell)	1	59.7	active
RPA3	SID405528324	Vehicle	OCI-C5x (clear cell)	2	41.6	active
RPA3	SID405528324	Vehicle	OCI-C5x (clear cell)	3	40.5	active
RPA3	SID405528324	Vehicle	OCI-P5x (serous)	1	70.1	active
RPA3	SID405528324	Vehicle	OCI-P5x (serous)	2	60.5	active
RPA3	SID405528324	Vehicle	OCI-P5x (serous)	3	51.4	active
NBN	SID405527061	Rucaparib	OCI-C5x (clear cell)	1	45.3	active
NBN	SID405527061	Rucaparib	OCI-C5x (clear cell)	1	45.6	active
NBN	SID405527061	Rucaparib	OCI-C5x (clear cell)	2	55.3	active
NBN	SID405527061	Rucaparib	OCI-C5x (clear cell)	2	58.1	active
NBN	SID405527061	Rucaparib	OCI-C5x (clear cell)	3	49.3	active
NBN	SID405527061	Rucaparib	OCI-C5x (clear cell)	3	54.9	active
NBN	SID405527061	Rucaparib	OCI-P5x (serous)	1	43.9	active
NBN	SID405527061	Rucaparib	OCI-P5x (serous)	1	105	inactive
NBN	SID405527061	Rucaparib	OCI-P5x (serous)	2	34.5	active
NBN	SID405527061	Rucaparib	OCI-P5x (serous)	2	81.2	inactive
NBN	SID405527061	Rucaparib	OCI-P5x (serous)	3	65.3	active
NBN	SID405527061	Rucaparib	OCI-P5x (serous)	3	39.7	active
NBN	SID405527061	Vehicle	OCI-C5x (clear cell)	1	38.4	active
NBN	SID405527061	Vehicle	OCI-C5x (clear cell)	1	47.2	active
NBN	SID405527061	Vehicle	OCI-C5x (clear cell)	2	50.1	active
NBN	SID405527061	Vehicle	OCI-C5x (clear cell)	2	51.3	active
NBN	SID405527061	Vehicle	OCI-C5x (clear cell)	3	44.3	active
NBN	SID405527061	Vehicle	OCI-C5x (clear cell)	3	37.2	active
NBN	SID405527061	Vehicle	OCI-P5x (serous)	1	47.1	active
NBN	SID405527061	Vehicle	OCI-P5x (serous)	1	66.2	active
NBN	SID405527061	Vehicle	OCI-P5x (serous)	2	67.5	active
NBN	SID405527061	Vehicle	OCI-P5x (serous)	2	39.4	active
NBN	SID405527061	Vehicle	OCI-P5x (serous)	3	45.1	active
NBN	SID405527061	Vehicle	OCI-P5x (serous)	3	79.5	active
MBD5	SID405526973	Rucaparib	OCI-C5x (clear cell)	1	48.5	active
MBD5	SID405526973	Rucaparib	OCI-C5x (clear cell)	2	36.3	active
MBD5	SID405526973	Rucaparib	OCI-C5x (clear cell)	3	46.9	active
MBD5	SID405526973	Rucaparib	OCI-P5x (serous)	1	47.1	active
MBD5	SID405526973	Rucaparib	OCI-P5x (serous)	2	49.4	active
MBD5	SID405526973	Rucaparib	OCI-P5x (serous)	3	55.5	active
MBD5	SID405526973	Vehicle	OCI-C5x (clear cell)	1	52	active
MBD5	SID405526973	Vehicle	OCI-C5x (clear cell)	2	55.5	active
MBD5	SID405526973	Vehicle	OCI-C5x (clear cell)	3	64.8	active
MBD5	SID405526973	Vehicle	OCI-P5x (serous)	1	72.2	active
MBD5	SID405526973	Vehicle	OCI-P5x (serous)	2	64.6	active
MBD5	SID405526973	Vehicle	OCI-P5x (serous)	3	68.6	active
STK11	SID405527704	Rucaparib	OCI-C5x (clear cell)	1	45.1	active
STK11	SID405527704	Rucaparib	OCI-C5x (clear cell)	2	53.9	active
STK11	SID405527704	Rucaparib	OCI-C5x (clear cell)	3	54.4	active
STK11	SID405527704	Rucaparib	OCI-P5x (serous)	1	116	inactive
STK11	SID405527704	Rucaparib	OCI-P5x (serous)	2	95.8	inactive
STK11	SID405527704	Rucaparib	OCI-P5x (serous)	3	81.2	inactive
STK11	SID405527704	Vehicle	OCI-C5x (clear cell)	1	45.4	active
STK11	SID405527704	Vehicle	OCI-C5x (clear cell)	2	40.5	active
STK11	SID405527704	Vehicle	OCI-C5x (clear cell)	3	43.6	active
STK11	SID405527704	Vehicle	OCI-P5x (serous)	1	51.6	active
STK11	SID405527704	Vehicle	OCI-P5x (serous)	2	55.5	active
STK11	SID405527704	Vehicle	OCI-P5x (serous)	3	59.3	active
BTG2	SID405528252	Rucaparib	OCI-C5x (clear cell)	1	50.6	active
BTG2	SID405528252	Rucaparib	OCI-C5x (clear cell)	2	54	active
BTG2	SID405528252	Rucaparib	OCI-C5x (clear cell)	3	49.8	active
BTG2	SID405528252	Rucaparib	OCI-P5x (serous)	1	82	inactive
BTG2	SID405528252	Rucaparib	OCI-P5x (serous)	2	89.3	inactive
BTG2	SID405528252	Rucaparib	OCI-P5x (serous)	3	65.3	active
BTG2	SID405528252	Vehicle	OCI-C5x (clear cell)	1	61.1	active
BTG2	SID405528252	Vehicle	OCI-C5x (clear cell)	2	47	active
BTG2	SID405528252	Vehicle	OCI-C5x (clear cell)	3	53.1	active
BTG2	SID405528252	Vehicle	OCI-P5x (serous)	1	84.8	inactive
BTG2	SID405528252	Vehicle	OCI-P5x (serous)	2	84.9	inactive
BTG2	SID405528252	Vehicle	OCI-P5x (serous)	3	85.2	inactive
ACTR8	SID405527950	Rucaparib	OCI-C5x (clear cell)	1	44.1	active
ACTR8	SID405527950	Rucaparib	OCI-C5x (clear cell)	2	60.9	active
ACTR8	SID405527950	Rucaparib	OCI-C5x (clear cell)	3	54.9	active
ACTR8	SID405527950	Rucaparib	OCI-P5x (serous)	1	37.1	active
ACTR8	SID405527950	Rucaparib	OCI-P5x (serous)	2	43.6	active
ACTR8	SID405527950	Rucaparib	OCI-P5x (serous)	3	58.4	active
ACTR8	SID405527950	Vehicle	OCI-C5x (clear cell)	1	66	active
ACTR8	SID405527950	Vehicle	OCI-C5x (clear cell)	2	39.9	active
ACTR8	SID405527950	Vehicle	OCI-C5x (clear cell)	3	54.4	active
ACTR8	SID405527950	Vehicle	OCI-P5x (serous)	1	60.4	active
ACTR8	SID405527950	Vehicle	OCI-P5x (serous)	2	42.4	active
ACTR8	SID405527950	Vehicle	OCI-P5x (serous)	3	113	inactive

Copied from the list:
Under “call”, RPA3 [SID405528324], rucaparib or vehicle Rucaparib, cell line OCI-C5x (clear cell), technical replicate 3 has active
For “viability, normalised (%)”, STK11 [SID405527704], rucaparib or vehicle Vehicle, cell line OCI-C5x (clear cell), technical replicate 1 reads 45.4
ACTR8 [SID405527950], rucaparib or vehicle Rucaparib, cell line OCI-C5x (clear cell), technical replicate 3, call → active
RPA3 [SID405528324], rucaparib or vehicle Rucaparib, cell line OCI-C5x (clear cell), technical replicate 2, call: active
For “call”, ACTR8 [SID405527950], rucaparib or vehicle Rucaparib, cell line OCI-C5x (clear cell), technical replicate 2 has active
